The text below walks through data of PMC4480132.

Protein sequences, listed by entry. Tags and fused reporters are not part of them. Lines headed by an entry give the natural chain unless they say otherwise; changes in a name come on top.
UniProt Q9H063: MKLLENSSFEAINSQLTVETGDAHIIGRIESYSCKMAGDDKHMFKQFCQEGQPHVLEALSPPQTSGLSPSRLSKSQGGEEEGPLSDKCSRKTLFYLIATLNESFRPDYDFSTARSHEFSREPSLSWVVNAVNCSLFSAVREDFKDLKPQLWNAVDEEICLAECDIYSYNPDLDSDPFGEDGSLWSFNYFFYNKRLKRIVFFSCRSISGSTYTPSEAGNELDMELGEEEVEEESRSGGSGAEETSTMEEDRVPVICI

The data set has as its target MAF1 (His-tagged, Fitzgerald 80R-1955) (UniProt Q9H063). The experiment in a line: competition with a labelled probe. The conditions noted are these: unlabeled self, 200 ng vs 40 ng probe; IP-qPCR: 20 mM HEPES pH 7.6, 150 mM NaCl, 0.25 mM EDTA, 10% glycerol, 0.2% NP40, 1 mM DTT, 200 ng BSA, 50 ul, 20 ng DNA, 400 ng MAF1, 4 C/ice; commercial protein; protein details: His6; label: 5' biotin (probe), unlabeled as self competitor.

For at least one entry, the source does not settle the construct or the ends of the probe. At least one verdict rests on a figure or table, not on a statement of the authors.

As for “AATCAACAACTTTGTATACTTAAGTTCAGTGGACCTCAATTTCCTCATCTGTGAAATAAA (double strand) [p21 A-box probe (CDKN1A MIR3)]”, the binding result is recorded as “binds”.
